Experimental data taken from the supplement of paper PMC8728848.
Some of the results follow.

Columns and labels:
Assay in all cases: glycan array binding signal (z-score within array); higher = stronger binding
Details in all cases: glycan notation: IUPAC condensed, linker removed
[1] = target: GlcNAc(b1-4)[GlcNAc(b1-6)]GalNAc
How it was run: (§1)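 The binding signal is a Z-score computed within each array and averaged over linkers. Arrays of the same protein sequence at different concentrations or buffers were also averaged together. Data originate from 3228 arrays in the Consortium for Functional Glycomics database, kept only where the protein sequence was available.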

[2] = target: GlcNAc(b1-6)Gal(b1-4)GlcNAc
How it was run: as §1

GlcNAc(b1-6)GalNAc = target: GlcNAc(b1-6)GalNAc
How it was run: as §1

GlcNAc3Prop(b1-4)GlcNAc = target: GlcNAc3Prop(b1-4)GlcNAc
How it was run: as §1

[3] = target: GlcNAc6S(b1-3)Gal(b1-4)GlcNAc
How it was run: as §1

Kdn(a2-3)Gal(b1-3)GalNAc = target: Kdn(a2-3)Gal(b1-3)GalNAc
How it was run: as §1

Kdn(a2-3)Gal(b1-3)GlcNAc = target: Kdn(a2-3)Gal(b1-3)GlcNAc
How it was run: as §1

Kdn(a2-3)Gal(b1-4)Glc = target: Kdn(a2-3)Gal(b1-4)Glc
How it was run: as §1

Kdn(a2-3)Gal(b1-4)GlcNAc = target: Kdn(a2-3)Gal(b1-4)GlcNAc
How it was run: as §1

[4] = target: Kdn(a2-3)Gal(b1-4)[Fuc(a1-3)]GlcNAc
How it was run: as §1

Kdn(a2-6)Gal(b1-4)GlcNAc = target: Kdn(a2-6)Gal(b1-4)GlcNAc
How it was run: as §1

[5] = target: Man(a1-2)Man(a1-2)Man(a1-3)Man
How it was run: as §1

[6] = target: Man(a1-2)Man(a1-2)Man(a1-6)[Man(a1-3)]Man
How it was run: as §1

Man(a1-2)Man(a1-3)Man = target: Man(a1-2)Man(a1-3)Man
How it was run: as §1

[7] = target: Man(a1-2)Man(a1-3)[Man(a1-2)Man(a1-6)]Man
How it was run: as §1

[8] = target: Man(a1-2)Man(a1-3)[Man(a1-2)Man(a1-6)]Man(a1-6)[Man(a1-2)Man(a1-2)Man(a1-3)]Man
How it was run: as §1

[9] = target: Man(a1-2)Man(a1-3)[Man(a1-2)Man(a1-6)]Man(a1-6)[Man(a1-2)Man(a1-2)Man(a1-3)]Man(b1-4)GlcNAc(b1-4)GlcNAc
How it was run: as §1

[10] = target: Man(a1-2)Man(a1-3)[Man(a1-6)]Man(a1-6)[Man(a1-2)Man(a1-3)]Man(b1-4)GlcNAc(b1-4)GlcNAc
How it was run: as §1

[11] = target: Man(a1-2)Man(a1-6)[Man(a1-3)]Man(a1-6)[Man(a1-2)Man(a1-2)Man(a1-3)]Man
How it was run: as §1

[12] = target: Man(a1-2)Man(a1-6)[Man(a1-3)]Man(a1-6)[Man(a1-2)Man(a1-2)Man(a1-3)]Man(b1-4)GlcNAc(b1-4)GlcNAc
How it was run: as §1

Man(a1-3)[Man(a1-6)]Man = target: Man(a1-3)[Man(a1-6)]Man
How it was run: as §1

[13] = target: Man(a1-3)[Man(a1-6)]Man(a1-6)[Man(a1-2)Man(a1-3)]Man(b1-4)GlcNAc(b1-4)GlcNAc
How it was run: as §1

[14] = target: Man(a1-3)[Man(a1-6)]Man(a1-6)[Man(a1-3)]Man
How it was run: as §1

[15] = target: Man(a1-3)[Man(a1-6)]Man(a1-6)[Man(a1-3)]Man(b1-4)GlcNAc(b1-4)GlcNAc
How it was run: as §1

[16] = target: Man(a1-3)[Man(a1-6)]Man(b1-4)GlcNAc(b1-4)GlcNAc
How it was run: as §1

[17] = target: Man(a1-3)[Man(a1-6)]Man(b1-4)GlcNAc(b1-4)[Fuc(a1-6)]GlcNAc
How it was run: as §1

Man(a1-6)Man = target: Man(a1-6)Man
How it was run: as §1

Man(b1-4)GlcNAc = target: Man(b1-4)GlcNAc
How it was run: as §1

MurNAc(b1-4)GlcNAc = target: MurNAc(b1-4)GlcNAc
How it was run: as §1

Neu5Ac(a2-3)Gal = target: Neu5Ac(a2-3)Gal
How it was run: as §1

[18] = target: Neu5Ac(a2-3)Gal(b1-3)GalNAc
How it was run: as §1

[19] = target: Neu5Ac(a2-3)Gal(b1-3)GalNAc(b1-3)Gal(a1-4)Gal(b1-4)Glc
How it was run: as §1

[20] = target: Neu5Ac(a2-3)Gal(b1-3)GalNAc(b1-4)[Neu5Ac(a2-3)]Gal(b1-4)Glc
How it was run: as §1

[21] = target: Neu5Ac(a2-3)Gal(b1-3)GalNAc(b1-4)[Neu5Ac(a2-8)Neu5Ac(a2-3)]Gal(b1-4)Glc
How it was run: as §1

[22] = target: Neu5Ac(a2-3)Gal(b1-3)GalNAc6S
How it was run: as §1

[23] = target: Neu5Ac(a2-3)Gal(b1-3)GlcNAc
How it was run: as §1

[24] = target: Neu5Ac(a2-3)Gal(b1-3)GlcNAc(b1-2)Man
How it was run: as §1

[25] = target: Neu5Ac(a2-3)Gal(b1-3)GlcNAc(b1-2)Man(a1-3)[GlcNAc(b1-4)][Neu5Ac(a2-3)Gal(b1-3)GlcNAc(b1-2)Man(a1-6)]Man(b1-4)GlcNAc(b1-4)GlcNAc
How it was run: as §1

B1: LlpA1 (Pseudomonas fluorescens), Q4KHC3 (protein)
chain: MGSSHHHHHHSSGLVPRGSHMAWIRYDFTDNGSSVLPARYYMAPNQYLQSPNKRFKLLFQADGNLALYDGAQLAWVADQNTPFTNVSKGNKKDPMMVFMNYGFVLDDPLRGRIWSTTPSDPTMGSREDASLRAFTQVQDDGNIVTVDTIPHWYAPNGRVFTPAVGAAMIIGGTTELVPGQFYSAGEHSLVFQGDGNLVVYGPNSSVIWATYTQNKGGVRCVMQEDGNLVIYAANNGVVWQSGTGGHPGATIRLQANGSFTIVTERPVWARFGYTPTIKPPRVFYPDHKWKTGSYTWNNVF
- glycan array binding signal (z-score) [1]: 0.367
- glycan array binding signal (z-score) [2]: -0.025
- glycan array binding signal (z-score) (GlcNAc(b1-6)GalNAc): -0.33
- glycan array binding signal (z-score) (GlcNAc3Prop(b1-4)GlcNAc): 0.426
- glycan array binding signal (z-score) [3]: -0.108
- glycan array binding signal (z-score) (Kdn(a2-3)Gal(b1-3)GalNAc): -0.108
- glycan array binding signal (z-score) (Kdn(a2-3)Gal(b1-3)GlcNAc): -0.948
- glycan array binding signal (z-score) (Kdn(a2-3)Gal(b1-4)Glc): -0.444
- glycan array binding signal (z-score) (Kdn(a2-3)Gal(b1-4)GlcNAc): -0.55
- glycan array binding signal (z-score) [4]: -0.679
- glycan array binding signal (z-score) (Kdn(a2-6)Gal(b1-4)GlcNAc): 0.056
- glycan array binding signal (z-score) [5]: 0.075
- glycan array binding signal (z-score) [6]: -0.268
- glycan array binding signal (z-score) (Man(a1-2)Man(a1-3)Man): -0.262
- glycan array binding signal (z-score) [7]: -0.261
- glycan array binding signal (z-score) [8]: -0.481
- glycan array binding signal (z-score) [9]: 0.448
- glycan array binding signal (z-score) [10]: -0.851
- glycan array binding signal (z-score) [11]: 1.14
- glycan array binding signal (z-score) [12]: -0.551
- glycan array binding signal (z-score) (Man(a1-3)[Man(a1-6)]Man): 0.455
- glycan array binding signal (z-score) [13]: 0.633
- glycan array binding signal (z-score) [14]: 0.991
- glycan array binding signal (z-score) [15]: -0.014
- glycan array binding signal (z-score) [16]: -0.597
- glycan array binding signal (z-score) [17]: -0.367
- glycan array binding signal (z-score) (Man(a1-6)Man): 1.03
- glycan array binding signal (z-score) (Man(b1-4)GlcNAc): -0.216
- glycan array binding signal (z-score) (MurNAc(b1-4)GlcNAc): -0.089
- glycan array binding signal (z-score) (Neu5Ac(a2-3)Gal): 0.408
- glycan array binding signal (z-score) [18]: -1
- glycan array binding signal (z-score) [19]: 0.287
- glycan array binding signal (z-score) [20]: -0.289
- glycan array binding signal (z-score) [21]: -0.525
- glycan array binding signal (z-score) [22]: 0.094
- glycan array binding signal (z-score) [23]: -0.178
- glycan array binding signal (z-score) [24]: 0.204
- glycan array binding signal (z-score) [25]: 0.275
